Isolated mass data for one substance are collected here from patent EP0267629 (dated 1988).

HELM strings list residues between dots; [ac] is acetyl, [am] amide, other brackets name non-standard units.

The series can be described thus: Boc solid-phase peptide synthesis; polystyrene carrier with Boc-Lys(ClZ); dicyclohexylcarbodiimide; N-hydroxybenzotriazole active ester for Asn. Particulars: whole synthesis, scale 0.5 millimole.

As for PEPTIDE1{R.F.V.F.N.K}$$$$V2.0, the isolated mass stood at 211 mg.
